Results are given in words; binding and its absence hold for the method and conditions named. Some binding calls cover weakened binding; strength is not graded here. For some assays here: Tags and fused reporters may be left off the sequences shown.
Assays:
[1] = target: Klebsiella pneumoniae GalF (galF gene product), wild type (Klebsiella pneumoniae) (UniProt Q48447); experiment: native gel or EMSA; blue native PAGE, 4.5 µg of each protein on a uniform 12% native gel, followed by in-gel activity staining; both purified
[2] = target: Klebsiella pneumoniae UDP-glucose pyrophosphorylase (galU gene product), wild type (Klebsiella pneumoniae) (UniProt A6TAK9); experiment: as above

Row | Binder | binding [1] | binding [2]
1 | Klebsiella pneumoniae GalF (galF gene product), wild type (natural protein, UniProt Q48447 1-298, looked up, GalF (galF gene product) of K. pneumoniae subsp. pneumoniae type strain DSM 30104 (ATCC 13883, NCTC 9633), cloned from genomic DNA into MCS1 of pETDuet-1; UniProt entry printed for the AlphaFold query; 34.3 kDa with tag; no cleavage of the tag is described; also called KpGalF; KpGalF wt) MNMANLKAVIPVAGLGMHMLPATKAIPKEMLPIVDKPMIQYIVDEIVAAGIKEIVLVTHSSKNAVENHFDTSYELEALLEQRVKRQLLAEVQAICPPGVTIMNVRQAQPLGLGHSILCARPVVGDNPFVVVLPDIILDGGTADPLRYNLAAMIARFNETGRSQVLAKRMPGDLSEYSVIQTKEPMVAEGQVARIVEFIEKPDEPQTLDSDLMAVGRYVLSADIWAELERTEPGAWGRIQLTDAIAELAKKQSVDAMLMTGESYDCGKKMGYMQAFVTYGMRNLKEGAKFRESIKKLLA | binds | –
2 | Klebsiella pneumoniae UDP-glucose pyrophosphorylase (galU gene product), wild type (enzyme, UniProt A6TAK9 1-300, looked up, UDP-glucose pyrophosphorylase (galU gene product) of K. pneumoniae subsp. pneumoniae type strain DSM 30104 (ATCC 13883, NCTC 9633), cloned from genomic DNA; UniProt entry printed for the AlphaFold query; 34.6 kDa with tag; no cleavage of the tag is described; Also made from pETDuet-1 with the same oligomeric state; also called KpUGP; KpUGP wt; not shown: Strep-tagII, N-terminal, kept) MAALNSKVRKAVIPVAGLGTRMLPATKAIPKEMLPLVDKPLIQYVVNECIAAGITEIVLVTHSSKNSIENHFDTSFELEAMLEKRVKRQLLEEVQSICPPHVTIMQVRQGLAKGLGHAVLCAHPVVGDEPVAVILPDVILDEYESDLSRDNLAEMISRFDETGASQIMVEPVEDVTAYGVVDCKGESLKPGESVPMVGVVEKPKADVAPSNLAVVGRYVLSADIWPLLAKTPPGAGDEIQLTDAIDMLIEKETVEAYHMKGKSHDCGNKLGYMQAFVEYGIRHKTLGDDFKAWLETAVAK | – | binds
